The list shows a part of the results.

Amino acid sequences for entries named in this document (tags omitted). A change or cut given only in a name is not applied to a line headed by its entry.
UniProt Q13049: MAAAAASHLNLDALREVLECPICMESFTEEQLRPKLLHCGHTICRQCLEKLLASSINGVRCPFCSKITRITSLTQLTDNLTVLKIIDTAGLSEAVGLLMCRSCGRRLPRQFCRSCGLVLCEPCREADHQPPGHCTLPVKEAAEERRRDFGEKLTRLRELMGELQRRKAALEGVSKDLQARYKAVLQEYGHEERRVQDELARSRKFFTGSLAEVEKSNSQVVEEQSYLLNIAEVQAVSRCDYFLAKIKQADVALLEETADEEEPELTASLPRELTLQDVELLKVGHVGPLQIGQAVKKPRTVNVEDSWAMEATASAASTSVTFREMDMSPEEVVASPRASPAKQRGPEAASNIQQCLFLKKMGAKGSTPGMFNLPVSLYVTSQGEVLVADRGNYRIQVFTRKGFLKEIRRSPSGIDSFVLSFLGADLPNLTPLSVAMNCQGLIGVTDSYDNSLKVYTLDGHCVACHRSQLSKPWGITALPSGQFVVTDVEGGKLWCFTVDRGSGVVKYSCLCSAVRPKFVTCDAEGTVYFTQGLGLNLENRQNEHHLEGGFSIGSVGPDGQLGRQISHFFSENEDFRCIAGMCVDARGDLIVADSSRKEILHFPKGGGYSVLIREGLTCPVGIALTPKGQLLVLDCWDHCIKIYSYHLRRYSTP
UniProt Q16762: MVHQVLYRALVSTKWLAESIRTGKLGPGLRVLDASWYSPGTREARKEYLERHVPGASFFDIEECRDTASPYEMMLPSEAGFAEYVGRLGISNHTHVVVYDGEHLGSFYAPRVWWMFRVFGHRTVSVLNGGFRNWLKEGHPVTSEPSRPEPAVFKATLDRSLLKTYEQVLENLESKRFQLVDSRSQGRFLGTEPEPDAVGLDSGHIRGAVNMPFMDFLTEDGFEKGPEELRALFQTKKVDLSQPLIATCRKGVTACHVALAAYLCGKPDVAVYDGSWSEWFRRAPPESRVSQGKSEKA
UniProt Q6PGP7, whole entry, looked up: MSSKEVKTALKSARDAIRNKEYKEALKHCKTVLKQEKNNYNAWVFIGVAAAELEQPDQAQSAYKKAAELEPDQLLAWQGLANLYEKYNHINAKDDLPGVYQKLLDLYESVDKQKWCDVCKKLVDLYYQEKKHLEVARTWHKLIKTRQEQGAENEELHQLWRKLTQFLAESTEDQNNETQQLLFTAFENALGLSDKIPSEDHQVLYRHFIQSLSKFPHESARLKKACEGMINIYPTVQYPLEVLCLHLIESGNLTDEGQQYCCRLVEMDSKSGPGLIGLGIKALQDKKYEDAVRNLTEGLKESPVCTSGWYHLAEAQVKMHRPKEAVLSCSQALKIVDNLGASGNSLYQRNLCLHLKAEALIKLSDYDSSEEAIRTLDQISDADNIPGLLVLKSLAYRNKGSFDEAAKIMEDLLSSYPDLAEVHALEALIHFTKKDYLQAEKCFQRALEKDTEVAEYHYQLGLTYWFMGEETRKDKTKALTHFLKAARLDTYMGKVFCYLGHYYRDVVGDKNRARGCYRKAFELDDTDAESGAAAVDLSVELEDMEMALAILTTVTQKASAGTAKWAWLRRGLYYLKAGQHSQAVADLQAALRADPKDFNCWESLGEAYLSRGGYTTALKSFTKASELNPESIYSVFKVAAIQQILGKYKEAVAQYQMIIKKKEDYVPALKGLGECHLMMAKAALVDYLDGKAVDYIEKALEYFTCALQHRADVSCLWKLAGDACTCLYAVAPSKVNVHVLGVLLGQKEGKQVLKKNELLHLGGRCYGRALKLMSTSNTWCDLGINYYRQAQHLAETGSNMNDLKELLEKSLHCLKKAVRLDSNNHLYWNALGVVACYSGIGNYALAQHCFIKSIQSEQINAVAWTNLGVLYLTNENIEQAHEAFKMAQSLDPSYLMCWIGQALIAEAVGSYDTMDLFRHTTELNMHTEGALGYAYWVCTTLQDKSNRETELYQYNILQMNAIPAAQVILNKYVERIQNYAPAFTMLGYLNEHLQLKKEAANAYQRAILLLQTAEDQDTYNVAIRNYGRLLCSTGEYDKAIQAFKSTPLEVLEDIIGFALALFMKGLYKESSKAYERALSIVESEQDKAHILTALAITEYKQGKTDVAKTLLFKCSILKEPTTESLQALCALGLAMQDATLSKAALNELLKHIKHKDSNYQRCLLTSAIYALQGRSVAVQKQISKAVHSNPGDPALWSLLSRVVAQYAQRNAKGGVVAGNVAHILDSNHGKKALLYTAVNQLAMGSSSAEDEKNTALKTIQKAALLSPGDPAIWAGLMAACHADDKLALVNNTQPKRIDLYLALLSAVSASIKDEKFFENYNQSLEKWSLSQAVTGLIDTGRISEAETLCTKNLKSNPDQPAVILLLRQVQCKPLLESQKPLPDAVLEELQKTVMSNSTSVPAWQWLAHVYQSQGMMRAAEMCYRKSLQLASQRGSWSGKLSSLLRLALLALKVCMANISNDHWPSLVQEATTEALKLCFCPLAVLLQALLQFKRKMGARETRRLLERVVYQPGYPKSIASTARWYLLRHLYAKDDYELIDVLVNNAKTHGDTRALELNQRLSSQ
UniProt Q86TN4: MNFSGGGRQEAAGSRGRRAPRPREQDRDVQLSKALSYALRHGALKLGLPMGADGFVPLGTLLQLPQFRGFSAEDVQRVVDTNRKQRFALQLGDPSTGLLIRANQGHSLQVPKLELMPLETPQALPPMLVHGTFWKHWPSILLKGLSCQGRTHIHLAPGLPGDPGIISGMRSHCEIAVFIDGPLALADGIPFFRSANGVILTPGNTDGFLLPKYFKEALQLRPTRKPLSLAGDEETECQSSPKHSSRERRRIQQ
UniProt Q969E8: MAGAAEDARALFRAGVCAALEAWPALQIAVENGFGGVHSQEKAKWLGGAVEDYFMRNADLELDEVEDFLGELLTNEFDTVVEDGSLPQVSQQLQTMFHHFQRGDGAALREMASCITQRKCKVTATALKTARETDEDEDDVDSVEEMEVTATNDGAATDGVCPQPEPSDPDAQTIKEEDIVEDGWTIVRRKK
UniProt Q9NXH9: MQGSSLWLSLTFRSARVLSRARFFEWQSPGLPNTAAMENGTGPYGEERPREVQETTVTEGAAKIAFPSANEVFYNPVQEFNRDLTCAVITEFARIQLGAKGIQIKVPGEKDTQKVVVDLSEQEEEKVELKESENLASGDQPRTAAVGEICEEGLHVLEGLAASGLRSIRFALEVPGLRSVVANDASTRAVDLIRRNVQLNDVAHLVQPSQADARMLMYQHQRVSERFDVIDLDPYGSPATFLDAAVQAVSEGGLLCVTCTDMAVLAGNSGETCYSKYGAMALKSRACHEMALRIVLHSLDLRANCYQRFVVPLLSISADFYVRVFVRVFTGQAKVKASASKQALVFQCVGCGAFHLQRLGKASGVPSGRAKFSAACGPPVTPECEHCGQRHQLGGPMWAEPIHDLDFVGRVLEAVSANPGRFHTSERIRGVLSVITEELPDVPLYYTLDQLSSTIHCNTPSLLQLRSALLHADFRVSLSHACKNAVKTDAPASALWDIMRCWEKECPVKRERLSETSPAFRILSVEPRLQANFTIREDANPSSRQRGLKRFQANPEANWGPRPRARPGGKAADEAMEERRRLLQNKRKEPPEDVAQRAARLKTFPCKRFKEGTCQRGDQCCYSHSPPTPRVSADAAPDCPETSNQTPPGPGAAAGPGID
UniProt O95801: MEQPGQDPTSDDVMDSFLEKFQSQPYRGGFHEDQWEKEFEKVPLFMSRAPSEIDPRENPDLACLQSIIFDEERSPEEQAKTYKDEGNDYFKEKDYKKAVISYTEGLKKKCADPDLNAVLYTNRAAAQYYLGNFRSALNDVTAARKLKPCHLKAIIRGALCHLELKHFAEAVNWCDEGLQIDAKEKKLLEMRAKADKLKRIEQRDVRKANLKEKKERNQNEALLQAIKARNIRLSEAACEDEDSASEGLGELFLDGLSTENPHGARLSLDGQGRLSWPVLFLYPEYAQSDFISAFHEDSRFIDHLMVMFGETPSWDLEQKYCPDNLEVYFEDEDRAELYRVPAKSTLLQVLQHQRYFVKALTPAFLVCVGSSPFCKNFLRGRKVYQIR
UniProt O15164: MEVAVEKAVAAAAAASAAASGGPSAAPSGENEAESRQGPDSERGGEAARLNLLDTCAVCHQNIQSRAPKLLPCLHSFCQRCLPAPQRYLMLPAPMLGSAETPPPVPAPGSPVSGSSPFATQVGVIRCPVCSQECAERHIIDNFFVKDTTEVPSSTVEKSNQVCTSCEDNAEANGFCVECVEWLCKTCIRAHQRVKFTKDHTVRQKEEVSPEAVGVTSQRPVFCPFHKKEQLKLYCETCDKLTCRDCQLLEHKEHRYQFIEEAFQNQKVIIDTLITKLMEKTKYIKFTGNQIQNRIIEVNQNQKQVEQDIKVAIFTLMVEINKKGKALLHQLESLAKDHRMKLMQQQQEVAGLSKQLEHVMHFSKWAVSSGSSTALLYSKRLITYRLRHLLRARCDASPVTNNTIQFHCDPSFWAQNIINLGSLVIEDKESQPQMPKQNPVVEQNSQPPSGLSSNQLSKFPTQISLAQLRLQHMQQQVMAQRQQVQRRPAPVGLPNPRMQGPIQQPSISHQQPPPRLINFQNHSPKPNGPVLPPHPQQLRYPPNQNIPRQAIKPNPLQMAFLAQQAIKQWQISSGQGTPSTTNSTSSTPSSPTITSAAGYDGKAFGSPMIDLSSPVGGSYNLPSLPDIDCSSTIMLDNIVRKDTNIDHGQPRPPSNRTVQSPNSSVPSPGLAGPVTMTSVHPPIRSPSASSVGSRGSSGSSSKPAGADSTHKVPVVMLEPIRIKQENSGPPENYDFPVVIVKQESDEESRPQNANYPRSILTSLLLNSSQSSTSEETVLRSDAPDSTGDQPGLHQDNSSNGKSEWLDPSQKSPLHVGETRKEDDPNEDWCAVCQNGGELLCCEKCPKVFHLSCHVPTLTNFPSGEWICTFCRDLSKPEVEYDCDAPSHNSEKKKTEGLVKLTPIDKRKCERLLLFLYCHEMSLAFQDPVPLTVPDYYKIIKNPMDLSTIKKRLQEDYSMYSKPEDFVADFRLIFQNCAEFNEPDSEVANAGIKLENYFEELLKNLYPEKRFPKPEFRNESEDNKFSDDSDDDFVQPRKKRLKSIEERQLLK
UniProt O43715: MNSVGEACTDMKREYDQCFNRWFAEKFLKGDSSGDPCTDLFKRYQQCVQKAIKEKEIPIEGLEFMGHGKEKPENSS
UniProt O75157: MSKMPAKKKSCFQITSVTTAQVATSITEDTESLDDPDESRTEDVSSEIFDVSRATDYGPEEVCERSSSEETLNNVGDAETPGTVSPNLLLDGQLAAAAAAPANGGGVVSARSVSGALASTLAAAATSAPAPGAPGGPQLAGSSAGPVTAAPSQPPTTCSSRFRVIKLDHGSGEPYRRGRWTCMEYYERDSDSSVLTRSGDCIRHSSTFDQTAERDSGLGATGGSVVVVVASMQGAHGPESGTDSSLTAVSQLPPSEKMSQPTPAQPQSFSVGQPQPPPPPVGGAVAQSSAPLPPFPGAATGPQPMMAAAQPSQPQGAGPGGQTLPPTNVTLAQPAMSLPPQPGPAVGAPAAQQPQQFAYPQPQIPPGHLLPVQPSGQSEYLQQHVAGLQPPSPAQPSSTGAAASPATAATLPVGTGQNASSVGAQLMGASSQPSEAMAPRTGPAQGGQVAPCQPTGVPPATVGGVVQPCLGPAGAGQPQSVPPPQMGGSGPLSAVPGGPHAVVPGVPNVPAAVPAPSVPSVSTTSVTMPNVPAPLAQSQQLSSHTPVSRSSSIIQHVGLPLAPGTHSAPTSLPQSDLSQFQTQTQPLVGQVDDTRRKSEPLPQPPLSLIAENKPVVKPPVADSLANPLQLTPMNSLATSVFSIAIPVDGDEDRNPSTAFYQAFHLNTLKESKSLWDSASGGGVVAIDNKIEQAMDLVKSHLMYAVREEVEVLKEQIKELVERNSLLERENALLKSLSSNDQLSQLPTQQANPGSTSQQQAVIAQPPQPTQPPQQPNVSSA
UniProt Q32P41: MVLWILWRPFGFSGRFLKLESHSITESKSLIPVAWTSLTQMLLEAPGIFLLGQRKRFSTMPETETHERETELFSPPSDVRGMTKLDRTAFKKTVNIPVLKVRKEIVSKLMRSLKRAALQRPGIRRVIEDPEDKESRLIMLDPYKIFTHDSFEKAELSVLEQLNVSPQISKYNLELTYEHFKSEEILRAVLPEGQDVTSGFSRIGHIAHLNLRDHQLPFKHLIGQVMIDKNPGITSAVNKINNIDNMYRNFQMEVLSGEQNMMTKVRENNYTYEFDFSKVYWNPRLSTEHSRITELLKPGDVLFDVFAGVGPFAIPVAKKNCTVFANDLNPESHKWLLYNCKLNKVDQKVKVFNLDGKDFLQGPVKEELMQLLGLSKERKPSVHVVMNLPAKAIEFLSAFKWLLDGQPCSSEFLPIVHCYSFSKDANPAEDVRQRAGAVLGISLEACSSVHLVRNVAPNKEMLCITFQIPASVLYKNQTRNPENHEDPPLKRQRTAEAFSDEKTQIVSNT

Compound in the assay: Cn1cc(CNCC2CCN(c3ncc(C(=O)NO)cn3)CC2)c2ccccc21 [quisinostat]
Put plainly: log2 fold change, soluble protein after heating vs DMSO (PISA); higher = thermal stabilisation; K562 lysate, 10 uM; active = over 0.2 and 3.5 SD of the protein, either way, in both replicates (recomputed). The procedure, abridged:
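A 30 min treatment with 10 μM compound was applied to crude K562 extract at 1 mg/mL protein in PBS pH 7.4 with 1 mM MgCl2. Heating for 3 min spanned 48°C-58°C, after which aliquots were pooled, adjusted to 0.5% NP-40 at 4°C and spun at 21,000xg for 90 min. TMTpro 16plex LC-MS/MS of the supernatant, with channel sums equalised, gave values recorded as log-two fold change in thermal stability against solvent controls, from duplicates.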
On to TRIM32 (UniProt Q13049), for which the log2 fold change is inactive: 0.027.

With TRIM28 (UniProt Q13263), the log2 fold change was inactive: -0.001.

For TST (UniProt Q16762), the log2 fold change is inactive: 0.

As to TRMT1L (UniProt Q7Z2T5), the log2 fold change is inactive: -0.043.

As for TRUB1 (UniProt Q8WWH5), the log2 fold change was inactive: -0.005.

With TTC37 (UniProt Q6PGP7), the log2 fold change was active: -0.408.

On to TRPT1 isoform 4 (UniProt Q86TN4), for which the log2 fold change was inactive: -0.037.

With TTC38 (UniProt Q5R3I4), the log2 fold change is active: 0.293.

On to TSPYL1 (UniProt Q9H0U9), for which the log2 fold change was inactive: 0.

With TRAPPC2 isoform 3 (UniProt P0DI81), the log2 fold change was inactive: -0.13.

TRAPPC11 (UniProt Q7Z392): the log2 fold change was inactive: -0.037.

As to TSR2 (UniProt Q969E8), the log2 fold change is inactive: 0.007.

TRMT1 (UniProt Q9NXH9): the log2 fold change was inactive: -0.002.

Turning to TTLL12 (UniProt Q14166), the log2 fold change is inactive: -0.015.

For TTC12 isoform 2 (UniProt Q9H892), the log2 fold change is inactive: 0.033.

For TRIM58 (UniProt Q8NG06), the log2 fold change is inactive: -0.032.

Turning to TTC4 (UniProt O95801), the log2 fold change is inactive: -0.07.

On to TRIM56 (UniProt Q9BRZ2), for which the log2 fold change was inactive: -0.043.

For TRIP11 (UniProt Q15643), the log2 fold change was inactive: -0.027.

With TRIM24 (UniProt O15164), the log2 fold change was inactive: 0.01.

Take TRIAP1 (UniProt O43715): the log2 fold change is inactive: -0.082.

For TSC22D2 (UniProt O75157), the log2 fold change was inactive: -0.041.

On to TRMT5 (UniProt Q32P41), for which the log2 fold change was inactive: -0.059.

Values taken from the supplement of paper PMC10849652.
